Source: the supplement of paper PMC4683952
Some of the results follow. Rule as the data show it: active = 2 or more and inactive = the rest. Most values lie within the scatter of the assay; repeated measurements hardly agree.

The compounds below were run on Lgr5 (MarsCy1-Lgr5-EGFP, U2OS) (assay: cell-surface Lgr5 expression (SCi1 fluorescence, background-subtracted) relative to WT DMSO (fold of DMSO control); higher = more Lgr5 at the plasma membrane). Conditions: U2OS MarsCy1-Lgr5-EGFP stable; treatment time: overnight; library: ActiProbe-5K (TimTec); 25 µM.

cell-surface Lgr5 expression, inactive:
c1ccc2c(c1)ncn2CCn1cnc2ccccc21 1.14, c1ccc2nc3c(nc2c1)[nH]c1ccccc13 1.04, C=CCC(N)(CC=C)C1=C[C@H](CC(=C)C)N[C@@H](CC(=C)C)C1 1.11, COCCOC(=O)C1=C(C)NC(=O)NC1C1CC=CCC1 (stereo not drawn) 1.02, N#CCc1nc(-c2cccs2)cs1 1.4, NC(=O)c1c(NC(=O)C2CC2)sc2c1CCCC2 1.23, Nc1ccc(S(=O)(=O)NC2=NCCC2)cc1 1.04, Cc1ccc(/C=N/n2c(C)nnc2C)s1 1.41, COCn1nnc(-c2ccccn2)n1 0.978, O=C(CN1CCOCC1)NCCCCCNC(=O)CN1CCOCC1 1.18, CCOc1cc(S(=O)(=O)N2CCN=C2C)ccc1F 0.839, O=c1[nH]nc2c3c(cccc13)-c1ccccc1-2 1.27, Cn1c(-c2ccc(Cl)cc2Cl)n[nH]c1=S 1.31, Sc1nnc(C2CCCCC2)n1/N=C\C=C/c1ccco1 0.844, Fc1ccc(-c2cc(-c3nnc4sc(-c5cccs5)nn34)[nH]n2)cc1 1.14, C1(C(C2=NC([C@](C)(C)C)CO2)(C)C)=NC([C@](C)(C)C)CO1 (stereo not drawn) 1.38, Nc1nc(N)c2nc(CO)cnc2n1 0.833, O=S(=O)(OC1CCCN2CCCCC12)c1ccccc1 (stereo not drawn) 1.28, Clc1ccc2c(SSc3ccnc4cc(Cl)ccc34)ccnc2c1 1.16, CC12CC3CC(C)(C1)CC(CC(=O)NN)(C3)C2 1.12, OCC1OC(Nc2ccc(Cl)cc2)CC1O (stereo not drawn) 0.996, O=C/C(=C\O)c1ccncn1 1.26, Cn1cc(Cn2cc(N)cn2)cn1 1.28, O=C1CCCC1CCCCCCCCCCCO (stereo not drawn) 1.37, Cc1ccccc1-c1nnc2n1N=C(c1ccc3c(c1)OCO3)CS2 1.17, N#Cc1cc(C#N)c(=S)[nH]c1N 1.19, NC1=NC2=C(c3ccccc3)C(=O)CN2c2ccccc21 1.02, C1(=C(N2CCCC2)CCCC1)/C=C(\C#N)C#N 0.771, CC(=O)Nc1nonc1N1C(=N)SCC1=O 0.963, Cc1cc(C)c(CSc2nnc(C)s2)c(C)c1 1.28, O=c1[nH]c2cc[nH]c(=O)c2[nH]1 1.11, CC(C)CC(=O)NCC1CCCO1 (stereo not drawn) 1.16, COc1ccc(/C=N\NS(C)(=O)=O)cc1OC 1.25, Brc1cnc2nc3[nH]c4ccc(Br)cc4c3nc2c1 1.45, Cc1cc(=O)[nH]c(S)c1C#N 1.33, CCCCCC1NC(=O)NC1CCCCCC(=O)O (stereo not drawn) 1.57, Cc1ccc(/C=N\Nc2nncn2/N=C/c2ccc(C)o2)o1 1.13, O=c1[nH][nH]c(=O)n1-c1ccc2c(c1)OCO2 1.1, COC(=O)CCCCc1scc2[nH]c(=O)[nH]c12 1.38, COCn1nnc(-c2ccc(Cl)cc2)n1 1.02, CC(CNS(C)(=O)=O)OC12CC3CC(CC(C3)C1)C2 (stereo not drawn) 1.29, CS/C(=N/C#N)Nc1ccc(OC(F)F)cc1 1.17, CC(C)(C)S(=O)(=O)c1ccc(S(=O)(=O)C(C)(C)C)cc1 1.16, Cc1cc(C)nc(NS(=O)(=O)c2cc(Cl)ccc2Cl)n1 1.22, Fc1ccc(NC(=S)Nc2ccc(Br)cc2)cc1 0.855, Cc1cc(C(=O)O)c(CSCc2cc(C(=O)O)oc2C)o1 1.21, COc1cc(N)ccc1-n1cnnn1 1.06, S=c1sc2c(N3CCc4ccccc43)ncnc2n1-c1ccccc1 1.12, O=S(=O)(c1ccc(Br)cc1)N1CCCC1 1.39, Cc1cc(/C=N\O)c(S(C)(=O)=O)s1 1.15, O=C(CCCC(=O)Nc1nccs1)Nc1nccs1 0.984, CC(C)(C)OC(=O)NC1(C(=O)O)CCN(C(=O)OC(C)(C)C)CC1 1.2, O=c1nc(O)c(O)cn1C1OC(CO)C(O)C1O (stereo not drawn) 0.785, FC(F)(F)Oc1ccc(-n2cccn2)cc1 1.17, COc1ccc(S(N)(=O)=O)cc1OC 1.01, CCC(CC)C(=O)Nc1nnc(C(C)C)s1 1.44, CN1CCN(C(=O)c2nonc2N)CC1 1.15, c1(/[nH]c2ccccc2[nH]1)=N/n1cnnc1 1.28, O=C(O)Cc1nc2[nH]c3c(c(=O)n2n1)CCCC3 1.25, C=CCN(CC=C)C(=O)C(CC)CCCC (stereo not drawn) 1.09, O=c1[nH]nnc2ccc(Br)cc12 0.933, O=c1[nH]c2ccccc2c([O-])c1-[n+]1ccccc1 0.981, O=S(=O)(c1ccc(-n2cnnn2)cc1)c1ccc(-n2cnnn2)cc1 1.28, N#Cc1c(NC(=O)CCC2CCCC2)sc2c1CCCCCC2 1.13, Nc1cccc[n+]1Cc1ccccn1.[Br-] 1.22, O=[N+]([O-])c1cc(Br)c2nsnc2c1Br 0.449, c1ccc(-c2nnc(SC3CCCC3)nc2-c2ccccc2)cc1 0.831, CC/C(=C\c1sc2ccc(C)cc2[n+]1CCO)SC 1.5, Nc1nonc1-c1noc(-c2cccnc2O)n1 0.946, N#CC1=C(N)SC(N)=C(C#N)C1c1cc(Br)ccc1F 1.39, c1ccc(Oc2nc(Oc3ccccc3)nc(Oc3ccccc3)n2)cc1 0.973, O=C(O)C1CCS(=O)(=O)C1 (stereo not drawn) 1.16, Cc1cn2nc([N+](=O)[O-])cc2c(=O)o1 1.14
